Test results from the supplement of paper PMC12819154, “High-throughput peptide-centric local stability assay extends protein–ligand identification to membrane proteins, tissues and bacteria” (Nature Structural & Molecular Biology, 2025).
The list shows a part of the results. Most entries show no effect beyond the scatter of the controls.

The chains behind the UniProt entries cited, without tags or fusion partners. Where a name states a change or a piece, a line headed by the entry shows the natural chain unless it says otherwise.
UniProt P21440, whole entry: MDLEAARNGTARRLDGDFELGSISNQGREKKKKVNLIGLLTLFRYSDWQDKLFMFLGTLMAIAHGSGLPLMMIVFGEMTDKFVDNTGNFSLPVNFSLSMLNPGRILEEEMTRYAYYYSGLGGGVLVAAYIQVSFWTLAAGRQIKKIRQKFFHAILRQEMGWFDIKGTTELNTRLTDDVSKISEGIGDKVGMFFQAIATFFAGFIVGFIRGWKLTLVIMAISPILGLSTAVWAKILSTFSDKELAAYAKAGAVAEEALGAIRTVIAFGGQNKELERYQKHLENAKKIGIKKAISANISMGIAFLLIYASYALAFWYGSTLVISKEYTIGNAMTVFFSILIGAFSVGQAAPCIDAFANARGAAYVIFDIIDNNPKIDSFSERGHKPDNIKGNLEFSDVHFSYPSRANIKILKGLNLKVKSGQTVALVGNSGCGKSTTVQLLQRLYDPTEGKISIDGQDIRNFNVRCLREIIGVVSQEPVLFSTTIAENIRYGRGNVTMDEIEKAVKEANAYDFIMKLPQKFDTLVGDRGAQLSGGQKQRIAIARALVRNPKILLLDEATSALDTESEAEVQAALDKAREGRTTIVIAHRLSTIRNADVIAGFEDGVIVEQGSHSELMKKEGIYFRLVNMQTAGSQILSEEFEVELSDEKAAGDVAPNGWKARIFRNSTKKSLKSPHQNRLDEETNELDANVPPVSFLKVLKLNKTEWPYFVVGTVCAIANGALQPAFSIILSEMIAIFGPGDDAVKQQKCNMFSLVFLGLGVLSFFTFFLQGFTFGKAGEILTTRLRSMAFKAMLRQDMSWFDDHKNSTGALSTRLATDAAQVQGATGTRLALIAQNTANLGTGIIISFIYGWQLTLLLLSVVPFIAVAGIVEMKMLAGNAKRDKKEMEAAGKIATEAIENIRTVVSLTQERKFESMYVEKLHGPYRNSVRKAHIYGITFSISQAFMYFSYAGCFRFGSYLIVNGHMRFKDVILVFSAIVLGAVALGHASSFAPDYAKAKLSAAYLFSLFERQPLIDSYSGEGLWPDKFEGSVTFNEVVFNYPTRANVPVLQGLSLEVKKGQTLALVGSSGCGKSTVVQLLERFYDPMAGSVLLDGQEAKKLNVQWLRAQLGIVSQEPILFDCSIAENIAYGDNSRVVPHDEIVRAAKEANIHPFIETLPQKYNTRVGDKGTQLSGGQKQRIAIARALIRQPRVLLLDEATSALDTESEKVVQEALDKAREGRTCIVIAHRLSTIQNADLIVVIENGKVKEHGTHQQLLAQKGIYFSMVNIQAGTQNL
UniProt P24547, whole entry, looked up: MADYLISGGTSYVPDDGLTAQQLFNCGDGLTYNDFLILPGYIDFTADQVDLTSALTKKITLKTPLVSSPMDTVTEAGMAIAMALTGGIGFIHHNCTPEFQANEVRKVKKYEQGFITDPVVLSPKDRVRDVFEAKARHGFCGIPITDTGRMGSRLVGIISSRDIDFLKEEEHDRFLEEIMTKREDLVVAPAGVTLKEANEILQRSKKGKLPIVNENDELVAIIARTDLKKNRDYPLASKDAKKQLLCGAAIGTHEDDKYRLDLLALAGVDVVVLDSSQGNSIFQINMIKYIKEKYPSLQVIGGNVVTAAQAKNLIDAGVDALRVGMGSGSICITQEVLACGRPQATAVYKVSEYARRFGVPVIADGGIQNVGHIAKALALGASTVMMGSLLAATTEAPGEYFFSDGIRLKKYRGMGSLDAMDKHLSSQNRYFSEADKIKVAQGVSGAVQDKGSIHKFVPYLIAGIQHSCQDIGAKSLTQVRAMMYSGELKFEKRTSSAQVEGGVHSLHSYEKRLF
UniProt P17182, whole entry: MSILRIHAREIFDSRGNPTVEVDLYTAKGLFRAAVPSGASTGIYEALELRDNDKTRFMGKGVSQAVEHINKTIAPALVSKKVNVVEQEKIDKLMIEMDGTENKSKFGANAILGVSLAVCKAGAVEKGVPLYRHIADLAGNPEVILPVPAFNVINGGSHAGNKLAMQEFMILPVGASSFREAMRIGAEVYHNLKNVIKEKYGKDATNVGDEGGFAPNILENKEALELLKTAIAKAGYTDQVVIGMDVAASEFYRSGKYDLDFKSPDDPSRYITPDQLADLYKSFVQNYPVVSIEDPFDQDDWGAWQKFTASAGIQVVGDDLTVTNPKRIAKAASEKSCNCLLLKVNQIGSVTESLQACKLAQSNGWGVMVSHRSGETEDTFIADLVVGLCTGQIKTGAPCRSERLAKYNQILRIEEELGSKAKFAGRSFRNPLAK
UniProt P20067: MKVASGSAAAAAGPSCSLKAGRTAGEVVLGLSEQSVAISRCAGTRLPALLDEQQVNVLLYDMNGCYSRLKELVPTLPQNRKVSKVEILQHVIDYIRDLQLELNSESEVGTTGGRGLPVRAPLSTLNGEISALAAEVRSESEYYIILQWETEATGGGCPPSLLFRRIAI
UniProt P35295: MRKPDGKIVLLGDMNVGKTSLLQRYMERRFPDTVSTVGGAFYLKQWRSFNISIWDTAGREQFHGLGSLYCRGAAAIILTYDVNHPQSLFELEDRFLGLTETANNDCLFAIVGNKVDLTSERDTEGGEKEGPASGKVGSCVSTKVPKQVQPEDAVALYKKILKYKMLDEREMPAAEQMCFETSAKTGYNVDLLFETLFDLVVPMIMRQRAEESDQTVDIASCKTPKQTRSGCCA
UniProt P25119: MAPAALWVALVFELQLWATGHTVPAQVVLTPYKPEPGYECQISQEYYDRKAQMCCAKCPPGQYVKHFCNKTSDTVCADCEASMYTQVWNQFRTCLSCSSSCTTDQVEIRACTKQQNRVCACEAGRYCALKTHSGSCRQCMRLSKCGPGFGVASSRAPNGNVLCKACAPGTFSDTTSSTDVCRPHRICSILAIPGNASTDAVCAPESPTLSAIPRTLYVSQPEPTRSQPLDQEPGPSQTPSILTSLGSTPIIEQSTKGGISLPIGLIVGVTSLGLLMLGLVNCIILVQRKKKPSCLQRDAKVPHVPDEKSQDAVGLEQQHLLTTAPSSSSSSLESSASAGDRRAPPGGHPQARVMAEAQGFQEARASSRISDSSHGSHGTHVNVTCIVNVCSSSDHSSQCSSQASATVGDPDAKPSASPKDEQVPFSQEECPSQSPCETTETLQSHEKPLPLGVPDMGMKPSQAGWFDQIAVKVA
UniProt P33215, whole entry: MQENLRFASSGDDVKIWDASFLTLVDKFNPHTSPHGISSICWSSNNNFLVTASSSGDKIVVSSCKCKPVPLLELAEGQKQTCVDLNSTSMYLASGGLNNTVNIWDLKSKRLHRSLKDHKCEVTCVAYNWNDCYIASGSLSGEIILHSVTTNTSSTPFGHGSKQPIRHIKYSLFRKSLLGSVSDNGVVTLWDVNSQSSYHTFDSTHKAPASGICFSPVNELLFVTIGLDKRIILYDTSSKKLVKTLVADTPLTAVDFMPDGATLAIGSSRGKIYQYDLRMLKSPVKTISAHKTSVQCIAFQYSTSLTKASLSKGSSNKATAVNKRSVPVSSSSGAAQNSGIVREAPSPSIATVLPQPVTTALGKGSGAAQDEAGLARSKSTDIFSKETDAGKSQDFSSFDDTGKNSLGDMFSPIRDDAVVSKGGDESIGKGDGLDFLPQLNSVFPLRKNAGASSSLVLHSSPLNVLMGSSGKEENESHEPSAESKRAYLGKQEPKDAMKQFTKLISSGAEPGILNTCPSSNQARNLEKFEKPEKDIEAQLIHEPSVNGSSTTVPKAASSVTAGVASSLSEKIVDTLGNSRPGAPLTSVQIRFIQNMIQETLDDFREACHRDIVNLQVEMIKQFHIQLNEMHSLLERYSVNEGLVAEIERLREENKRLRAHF
UniProt P19536: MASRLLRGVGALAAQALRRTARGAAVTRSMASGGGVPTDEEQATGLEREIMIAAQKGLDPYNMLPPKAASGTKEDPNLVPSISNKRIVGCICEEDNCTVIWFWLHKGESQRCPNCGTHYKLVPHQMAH
UniProt P28575: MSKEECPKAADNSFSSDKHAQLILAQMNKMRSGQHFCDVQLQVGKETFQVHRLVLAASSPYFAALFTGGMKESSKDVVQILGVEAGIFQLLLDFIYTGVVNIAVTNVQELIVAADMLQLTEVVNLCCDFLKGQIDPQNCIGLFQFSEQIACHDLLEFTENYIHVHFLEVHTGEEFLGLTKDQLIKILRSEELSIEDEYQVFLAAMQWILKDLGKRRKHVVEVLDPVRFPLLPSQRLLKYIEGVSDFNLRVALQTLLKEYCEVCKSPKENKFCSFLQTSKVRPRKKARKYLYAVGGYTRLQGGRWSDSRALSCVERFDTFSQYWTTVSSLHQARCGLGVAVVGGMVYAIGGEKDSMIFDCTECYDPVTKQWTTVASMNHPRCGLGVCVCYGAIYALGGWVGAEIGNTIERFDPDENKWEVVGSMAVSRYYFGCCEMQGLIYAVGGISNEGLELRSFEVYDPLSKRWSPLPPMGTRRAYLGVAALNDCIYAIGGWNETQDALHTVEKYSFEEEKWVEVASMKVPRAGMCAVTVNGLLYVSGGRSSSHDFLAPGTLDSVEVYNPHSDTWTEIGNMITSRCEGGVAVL
UniProt P23188, whole entry: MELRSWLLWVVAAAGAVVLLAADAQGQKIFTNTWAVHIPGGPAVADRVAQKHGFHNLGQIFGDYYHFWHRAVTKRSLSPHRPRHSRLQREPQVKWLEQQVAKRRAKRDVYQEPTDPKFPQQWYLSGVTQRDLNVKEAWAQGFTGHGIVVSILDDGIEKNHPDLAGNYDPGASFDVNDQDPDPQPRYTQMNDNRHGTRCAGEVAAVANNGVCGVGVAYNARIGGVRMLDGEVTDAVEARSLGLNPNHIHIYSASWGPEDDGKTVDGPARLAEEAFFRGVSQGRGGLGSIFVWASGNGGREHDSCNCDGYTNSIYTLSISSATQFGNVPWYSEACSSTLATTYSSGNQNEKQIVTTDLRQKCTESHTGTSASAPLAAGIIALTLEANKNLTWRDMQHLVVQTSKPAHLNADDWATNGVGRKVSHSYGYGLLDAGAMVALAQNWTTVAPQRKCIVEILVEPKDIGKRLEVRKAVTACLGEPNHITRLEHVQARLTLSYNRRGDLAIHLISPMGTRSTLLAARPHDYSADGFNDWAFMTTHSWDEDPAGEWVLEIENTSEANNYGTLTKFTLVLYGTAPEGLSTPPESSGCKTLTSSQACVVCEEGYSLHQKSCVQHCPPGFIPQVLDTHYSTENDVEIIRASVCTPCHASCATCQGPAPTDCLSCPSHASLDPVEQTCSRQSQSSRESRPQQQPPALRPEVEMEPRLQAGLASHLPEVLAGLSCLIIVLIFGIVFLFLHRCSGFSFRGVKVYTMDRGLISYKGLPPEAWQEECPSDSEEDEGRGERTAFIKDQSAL
UniProt P16882: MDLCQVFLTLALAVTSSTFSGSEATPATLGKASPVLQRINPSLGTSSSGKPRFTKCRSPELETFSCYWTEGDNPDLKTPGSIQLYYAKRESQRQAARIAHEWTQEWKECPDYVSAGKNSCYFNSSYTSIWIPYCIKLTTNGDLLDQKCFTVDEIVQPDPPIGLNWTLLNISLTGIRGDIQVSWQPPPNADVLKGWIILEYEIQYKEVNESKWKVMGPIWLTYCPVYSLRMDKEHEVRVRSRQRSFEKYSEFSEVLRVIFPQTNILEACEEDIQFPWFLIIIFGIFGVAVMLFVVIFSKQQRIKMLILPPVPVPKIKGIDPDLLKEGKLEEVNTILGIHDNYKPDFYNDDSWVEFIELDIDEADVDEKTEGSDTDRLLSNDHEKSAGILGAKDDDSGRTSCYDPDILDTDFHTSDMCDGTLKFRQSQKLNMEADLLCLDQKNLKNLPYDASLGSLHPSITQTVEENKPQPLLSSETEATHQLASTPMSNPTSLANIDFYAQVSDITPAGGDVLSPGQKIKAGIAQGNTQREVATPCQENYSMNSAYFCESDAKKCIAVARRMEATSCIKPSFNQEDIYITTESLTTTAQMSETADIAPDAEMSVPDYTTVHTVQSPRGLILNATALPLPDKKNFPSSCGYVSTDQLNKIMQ
UniProt P21619: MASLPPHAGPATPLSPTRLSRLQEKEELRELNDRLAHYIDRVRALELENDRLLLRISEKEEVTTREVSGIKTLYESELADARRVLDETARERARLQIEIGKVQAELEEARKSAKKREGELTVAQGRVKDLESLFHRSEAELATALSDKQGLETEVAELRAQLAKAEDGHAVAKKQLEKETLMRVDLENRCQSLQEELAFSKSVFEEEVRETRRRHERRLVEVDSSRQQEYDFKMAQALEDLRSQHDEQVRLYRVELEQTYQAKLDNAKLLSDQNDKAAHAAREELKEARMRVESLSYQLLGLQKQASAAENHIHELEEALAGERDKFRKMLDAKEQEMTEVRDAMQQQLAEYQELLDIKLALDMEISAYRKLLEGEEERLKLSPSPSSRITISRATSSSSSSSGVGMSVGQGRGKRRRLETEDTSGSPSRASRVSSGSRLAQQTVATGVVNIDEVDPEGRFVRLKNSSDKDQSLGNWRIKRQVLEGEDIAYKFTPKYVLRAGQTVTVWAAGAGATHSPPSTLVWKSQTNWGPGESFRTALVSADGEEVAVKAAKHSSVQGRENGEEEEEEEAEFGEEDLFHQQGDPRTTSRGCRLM

The targets below were run with CN[C@@H]1C[C@H]2O[C@@](C)([C@@H]1OC)n1c3ccccc3c3c4c(c5c6ccccc6n2c5c31)C(=O)NC4 [staurosporine] (assay: log2 fold change of tryptic peptide abundance, ligand vs vehicle (limited proteolysis) (log2 ratio); higher = more trypsin-susceptible (destabilized)). Conditions: ligand concentration: 20 uM; sample: mouse liver crude lysate; replicate design: treated separately.
Work on “UniProt P18608 (peptide sequence: KVSADGAAKAEPK, peptide start residue: 5)” yielded a log2 fold change of -0.284. In the case of “UniProt P30355 (peptide sequence: AHNGRSFQR, peptide start residue: 36)”, the log2 fold change is reported as -0.27. “UniProt P21440 (peptide sequence: GNVTMDEIEK, peptide start residue: 492)” was tested, and the log2 fold change was -0.521. “UniProt P24547 (peptide sequence: FLEEIMTKR, peptide start residue: 174)” gave a log2 fold change of 0.658. For “UniProt P30115 (peptide sequence: AILNYIASK, peptide start residue: 70)”, the log2 fold change was 0.167. In the case of “UniProt P27038 (peptide sequence: GLAYLHEDIPGLK, peptide start residue: 299)”, the log2 fold change is reported as -0.568. Work on “UniProt P28076 (peptide sequence: AGAPTAGSFR, peptide start residue: 4)” yielded a log2 fold change of -0.0084. “UniProt P35330 (peptide sequence: TGTYGVLAAWR, peptide start residue: 256)” showed a log2 fold change of 0.163. “UniProt P24452 (peptide sequence: EGGVESAFHK, peptide start residue: 119)” gave a log2 fold change of -0.243. In the case of “UniProt P17182 (peptide sequence: IGAEVYHNLK, peptide start residue: 184)”, the log2 fold change is reported as 0.325. For “UniProt P16951 (peptide sequence: LKAALTQQHPPVTNGDTVK, peptide start residue: 260)”, the log2 fold change was -0.231. Work on “UniProt P17918 (peptide sequence: MPSGEFAR, peptide start residue: 139)” yielded a log2 fold change of 0.331. “UniProt P20067 (peptide sequence: VEILQHVIDYIR, peptide start residue: 85)” showed a log2 fold change of 0.421. Target “UniProt P35295 (peptide sequence: QVQPEDAVALYKK, peptide start residue: 147)” has a log2 fold change of 0.151. “UniProt P25119 (peptide sequence: VMAEAQGFQEAR, peptide start residue: 353)” was tested, and the log2 fold change was -0.406. Target “UniProt P33215 (peptide sequence: NLEKFEKPEK, peptide start residue: 524)” has a log2 fold change of 0.307. With “UniProt P19182 (peptide sequence: HLYNSAAFK, peptide start residue: 421)” the log2 fold change was -0.365. “UniProt P33587 (peptide sequence: WIHSYIGEK, peptide start residue: 443)” showed a log2 fold change of -0.399. Work on “UniProt P27699 (peptide sequence: KILNELSSDVPGIPK, peptide start residue: 136)” yielded a log2 fold change of -0.364. Target “UniProt P19973 (peptide sequence: KSQPTLPISTIDER, peptide start residue: 208)” has a log2 fold change of -0.319. “UniProt P19536 (peptide sequence: EIMIAAQK, peptide start residue: 49)” was tested, and the log2 fold change was -0.147. “UniProt P28575 (peptide sequence: VALQTLLK, peptide start residue: 250)” showed a log2 fold change of 0.16. Target “UniProt P24721 (peptide sequence: WVDGTDYR, peptide start residue: 239)” has a log2 fold change of 0.104. “UniProt P16382 (peptide sequence: AGWCPMEVSR, peptide start residue: 340)” showed a log2 fold change of -0.256. “UniProt P23116 (peptide sequence: LLDMDGIIVEK, peptide start residue: 341)” was tested, and the log2 fold change was 0.166. Target “UniProt P17751 (peptide sequence: TATPQQAQEVHEKLR, peptide start residue: 176)” has a log2 fold change of -0.262. With “UniProt P22227 (peptide sequence: FSLDFNLR, peptide start residue: 364)” the log2 fold change was 0.293. “UniProt P23188 (peptide sequence: ESRPQQQPPALRPEVEMEPR, peptide start residue: 684)” showed a log2 fold change of -0.127. For “UniProt P16882 (peptide sequence: GLILNATALPLPDKK, peptide start residue: 617)”, the log2 fold change was -0.0859. “UniProt P26041 (peptide sequence: AQSEAEKLAK, peptide start residue: 382)” was tested, and the log2 fold change was -0.166. Target “UniProt P21619 (peptide sequence: ALELENDR, peptide start residue: 44)” has a log2 fold change of -0.108.
